Experimental data as given in publication PMC7343504.
Results are given in words; binding and its absence hold for the method and conditions named. In cells and extracts the contact can be indirect. Some entries that bind do so weakly or less than the wild type.

Sequences of proteins named here, by UniProt entry; tags and fusion partners are left off.
UniProt Q12888: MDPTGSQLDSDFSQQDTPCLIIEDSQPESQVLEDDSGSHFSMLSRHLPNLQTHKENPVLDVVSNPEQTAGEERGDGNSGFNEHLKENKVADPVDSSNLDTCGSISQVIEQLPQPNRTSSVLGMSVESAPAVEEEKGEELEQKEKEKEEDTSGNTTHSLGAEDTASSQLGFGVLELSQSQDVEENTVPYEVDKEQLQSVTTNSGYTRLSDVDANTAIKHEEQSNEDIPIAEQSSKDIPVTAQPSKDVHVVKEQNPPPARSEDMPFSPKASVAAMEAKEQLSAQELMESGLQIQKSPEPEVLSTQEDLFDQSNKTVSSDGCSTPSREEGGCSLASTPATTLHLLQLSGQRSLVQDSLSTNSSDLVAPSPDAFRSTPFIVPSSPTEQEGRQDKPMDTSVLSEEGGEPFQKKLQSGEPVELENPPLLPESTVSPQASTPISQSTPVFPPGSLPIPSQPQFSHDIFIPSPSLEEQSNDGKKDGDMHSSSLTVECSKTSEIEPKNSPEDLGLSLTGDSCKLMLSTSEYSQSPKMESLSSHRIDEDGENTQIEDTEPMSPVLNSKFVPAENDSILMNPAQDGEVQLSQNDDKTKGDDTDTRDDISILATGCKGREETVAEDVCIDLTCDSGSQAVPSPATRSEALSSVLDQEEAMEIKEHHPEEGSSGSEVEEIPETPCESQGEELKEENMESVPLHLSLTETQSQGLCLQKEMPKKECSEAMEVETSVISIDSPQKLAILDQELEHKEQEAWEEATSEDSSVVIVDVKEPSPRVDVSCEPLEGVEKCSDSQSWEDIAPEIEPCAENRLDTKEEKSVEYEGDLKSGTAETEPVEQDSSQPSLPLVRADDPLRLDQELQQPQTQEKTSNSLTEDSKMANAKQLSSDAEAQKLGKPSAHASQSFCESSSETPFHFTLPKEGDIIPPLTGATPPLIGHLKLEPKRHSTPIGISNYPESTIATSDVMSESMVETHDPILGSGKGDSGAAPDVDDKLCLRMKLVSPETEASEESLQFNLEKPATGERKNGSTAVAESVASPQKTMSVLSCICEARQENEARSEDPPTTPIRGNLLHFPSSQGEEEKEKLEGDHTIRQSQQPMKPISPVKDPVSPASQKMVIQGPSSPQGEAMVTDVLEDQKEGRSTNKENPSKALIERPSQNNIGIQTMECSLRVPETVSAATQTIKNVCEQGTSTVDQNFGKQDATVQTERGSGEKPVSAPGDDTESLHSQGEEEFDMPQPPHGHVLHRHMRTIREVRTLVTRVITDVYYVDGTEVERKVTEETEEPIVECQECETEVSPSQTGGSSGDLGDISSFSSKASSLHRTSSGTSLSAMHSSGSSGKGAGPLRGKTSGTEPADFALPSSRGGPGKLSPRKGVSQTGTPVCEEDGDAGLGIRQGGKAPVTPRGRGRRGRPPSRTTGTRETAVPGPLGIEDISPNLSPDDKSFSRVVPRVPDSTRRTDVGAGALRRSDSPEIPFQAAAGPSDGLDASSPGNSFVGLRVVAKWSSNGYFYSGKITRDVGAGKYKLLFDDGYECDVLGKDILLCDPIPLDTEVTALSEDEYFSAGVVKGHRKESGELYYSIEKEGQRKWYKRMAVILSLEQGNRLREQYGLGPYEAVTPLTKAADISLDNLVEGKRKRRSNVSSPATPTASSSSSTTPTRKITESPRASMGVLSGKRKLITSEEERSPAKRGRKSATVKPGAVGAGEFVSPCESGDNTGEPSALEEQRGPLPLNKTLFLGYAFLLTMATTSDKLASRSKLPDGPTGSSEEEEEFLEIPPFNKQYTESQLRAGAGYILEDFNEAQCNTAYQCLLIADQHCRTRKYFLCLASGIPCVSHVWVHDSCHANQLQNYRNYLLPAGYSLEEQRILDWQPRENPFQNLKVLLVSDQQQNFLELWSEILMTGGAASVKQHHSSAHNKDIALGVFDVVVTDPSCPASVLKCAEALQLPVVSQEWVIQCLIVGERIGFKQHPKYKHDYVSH
UniProt P45973: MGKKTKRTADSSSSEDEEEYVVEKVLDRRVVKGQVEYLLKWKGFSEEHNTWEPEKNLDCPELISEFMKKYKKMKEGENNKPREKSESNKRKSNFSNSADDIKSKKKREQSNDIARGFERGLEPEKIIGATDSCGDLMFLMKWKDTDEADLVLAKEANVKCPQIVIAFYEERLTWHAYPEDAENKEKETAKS

Target: 53BP1 (human (endogenous in human skin fibroblasts)) (UniProt Q12888)
Test: proximity ligation; Duolink PLA on fixed and permeabilised human skin fibroblasts with antibodies against HP1α and 53BP1; signal detected within 10 minutes after irradiation

binding: binds
Substance: Heterochromatin protein 1α (HP1α) (from UniProt P45973 1-191)
